These results are taken from the supplement of paper PMC10398353.

“And” between values parts separate entries of the source, which are not always exact repeats. Identical values can stand only once. Counter-ions that a name gives are not always drawn. ± gives the standard deviation of the averaged measurements. Some of the results follow. Single values of this set are uncertain.

The assay has as its system Salmonella enterica serovar Typhimurium ST313 D23580. Put plainly: normalized bacterial growth (OD600 20 h minus 0 h, interquartile-mean normalized) (fraction of plate interquartile mean); higher = more bacterial growth (less inhibition). The settings on record: LPM (pH 5.8, low phosphate, low Mg2+), concentration: 10 µM, temperature: 37 °C.
As to `COc1cccc2c1C(=O)c1c(O)c3c(c(O)c1C2=O)C[C@@](O)(C(=O)CO)C[C@@H]3O[C@H]1C[C@H](N)[C@@H](O)[C@H](C)O1`, the normalized bacterial growth came out at 0.674. With `COc1ccc2c(c1)CC[C@@H]1[C@@H]2CC[C@]2(C)[C@@H](O)CC[C@@H]12`, the normalized bacterial growth came out at 1.19. The figure for `N=C(N)c1ccc(N)cc1` [4-Aminobenzamidine dihydrochloride] is 1.1; for `O[C@H]1[C@H](O)[C@@H](O)[C@H](O)[C@@H](O)[C@H]1O` it is 0.438.

As for `CCCN(CCC)CCc1cccc2c1CC(=O)N2` [Ropinirole hydrochloride], the normalized bacterial growth amounted to 0.487. In the case of `CCCN(CCC)CCc1cccc2c1CC(=O)N2` it was 1.19; in that of `C=C(C)[C@@H]1CC[C@]2(CO)CC[C@]3(C)[C@H](CC[C@@H]4[C@@]5(C)CC[C@H](O)C(C)(C)[C@@H]5CC[C@]43C)[C@@H]12`, 1.07 ± 0.2; in that of `CCCn1c(=O)c2[nH]c(C3CCCC3)nc2n(CCC)c1=O` ["8-Cyclopentyl-1,3-dipropylxanthine"], 1.01.

`O=C(CCNNC(=O)c1ccncc1)NCc1ccccc1` [Nialamide] displayed a normalized bacterial growth of 0.978. The figure for `N/C(=N\C(=O)c1nc(Cl)c(N)nc1N)NCc1ccccc1` [Benzamil hydrochloride] is 0.85; for `CCC(=O)c1ccc2c(c1)N(CCCN(C)C)c1ccccc1S2` [Propionylpromazine hydrochloride] it is 0.669. The figure for `Cc1nc2ccccn2c(=O)c1CCN1CCC(C(=O)c2ccc(F)cc2)CC1` [Pirenperone] is 1.01; for `CSc1nc2cc(Cl)c(Oc3cccc(Cl)c3Cl)cc2[nH]1` it is 0.708. In the case of `CCCCC[C@H](O)/C=C/[C@H]1[C@H](O)CC(=O)[C@@H]1C/C=C\CCCC(=O)O` it was 0.948. `CO[C@@H]1[C@H](OC(=O)/C=C/C=C/C=C/C=C/C(=O)O)CC[C@]2(CO2)[C@H]1[C@@]1(C)O[C@@H]1CC=C(C)C`: the normalized bacterial growth was found to be 0.365. The figure for `NC(=O)c1cnccn1` [Pyrazinecarboxamide] is 1.15; for `CC(=O)c1ccc[nH]1` it is 0.845. `CN1C(=O)CC[C@H]1c1cccnc1`: the normalized bacterial growth came out at 1.08. On to `Cc1cc(O)c(C=O)c(O)c1C(=O)O`, for which the normalized bacterial growth is 1.01. In the case of `CC[C@@H]1C(=O)OC[C@@H]1Cc1cncn1C` [(+)-Pilocarpine hydrochloride] it was 1.09; in that of `CC[C@@H]1C(=O)OC[C@@H]1Cc1cncn1C`, 0.938.

On to `CC[C@@H]1C(=O)OC[C@@H]1Cc1cncn1C` [Pilocarpine nitrate], for which the normalized bacterial growth is 1.16.

With `CC(=O)N[C@H]1[C@H]([C@H](O)[C@H](O)CO)OC(O)(C(=O)O)C[C@@H]1O` (mixture of isomers), the normalized bacterial growth stood at 0.956. Consider `COc1cc(OC)c2c(c1Cl)O[C@@]1(C(=O)CC(=O)C[C@H]1C)C2=O`, for which the normalized bacterial growth came to 0.887. In turn, `CCn1c(=O)[nH]c2cc(Cl)c(Cl)cc21` had a normalized bacterial growth of 1.1.

In the case of `CC(O)Cn1cnc2c1c(=O)n(C)c(=O)n2C` (stereo not given), the normalized bacterial growth was determined as 0.48.

In turn, `N[C@@H](Cc1c[nH]c2ccccc12)C(=O)O` displayed a normalized bacterial growth of 1.07. In the case of `N[C@@H](Cc1c[nH]c2ccccc12)C(=O)O` [L-Tryptophan] it was 0.914; in that of `O=C(OOC(=O)c1ccccc1)c1ccccc1`, 1.03. On to `Nc1cc(=O)[nH]c(N)n1` ["2,4-Diamino-6-pyrimidinone"], for which the normalized bacterial growth came out at 1.13. In the case of `NC(=O)CCCCC1CCSS1` (stereo not given) it was 0.954. Turning to `NS(=O)(=O)c1cc2c(cc1C(F)(F)F)NCNS2(=O)=O`, the normalized bacterial growth worked out at 0.757. Take `OC[C@H]1O[C@@H](n2cnc3c(N[C@H]4CCC[C@@H]4O)ncnc32)[C@H](O)[C@@H]1O`: the normalized bacterial growth was 1.43. In the case of `COC1(C2=NCCN2)COc2ccccc2O1` (stereo not given) it was 0.839. The figure for `O=C(/C=C/c1ccc(O)cc1)c1ccc(O)cc1O` [Isoliquiritigenin] is 0.816. The figure for `Cc1c(NC(=O)c2cccnc2)c(=O)n(-c2ccccc2)n1C` is 1.18; for `CS(=O)(=O)OCCCCOS(C)(=O)=O` it is 1.36. In the case of `OCc1c[nH]c2ccccc12`, the normalized bacterial growth worked out at 0.794.

Compound `COc1ccc(-c2coc3c(O)c(O)c(OC)cc3c2=O)cc1` registered a normalized bacterial growth of 0.912.

The compound `O=C(Nc1cccc(C(=O)Nc2ccc(S(=O)(=O)O)c3cc(S(=O)(=O)O)cc(S(=O)(=O)O)c23)c1)Nc1cccc(C(=O)Nc2ccc(S(=O)(=O)O)c3cc(S(=O)(=O)O)cc(S(=O)(=O)O)c23)c1` had a normalized bacterial growth of 1.1.

`Oc1ccc([C@H]2Oc3cc(O)cc(O)c3C[C@H]2O)cc1` had a normalized bacterial growth of 0.82.

As for `COc1cccc2c1C(=O)c1c(O)c3c(c(O)c1C2=O)C[C@@](O)(C(C)=O)C[C@@H]3O[C@H]1C[C@H](N)[C@H](O)[C@H](C)O1` [Daunorubicin hydrochloride], the normalized bacterial growth was 1.55. In the case of `COc1cccc2c1C(=O)c1c(O)c3c(c(O)c1C2=O)C[C@@](O)(C(C)=O)C[C@@H]3O[C@H]1C[C@H](N)[C@H](O)[C@H](C)O1` it was 1.33 ± 0.34; in that of `O=C(O[C@@H]1Cc2c(O)cc(O)cc2O[C@@H]1c1cc(O)c(=O)c2c(O)c(O)cc([C@H]3Oc4cc(O)cc(O)c4C[C@H]3OC(=O)c3cc(O)c(O)c(O)c3)c2c1)c1cc(O)c(O)c(O)c1`, 1.07; in that of `Ic1ccc(N2CCN(Cc3c[nH]c4ncccc34)CC2)cc1` ["L-750,667 trihydrochloride"], 0.335. In the case of `OCc1ccccc1O[C@@H]1O[C@H](CO)[C@@H](O)[C@H](O)[C@H]1O` it was 0.881; in that of `Nc1ncnc2c1nc(Br)n2C1OC2COP(=O)(O)O[C@@H]2C1O` (stereo not given in full) [8-Bromo-cAMP sodium], 0.928; in that of `CCCCCCCCCCCCC/C=C/[C@@H](O)[C@H](CO)NC(=O)CCCCC`, 1.26. In the case of `C=CC1=C(C(=O)O)N2C(=O)[C@@H](NC(=O)/C(=N\O)c3csc(N)n3)[C@H]2SC1` it was 0.0332; in that of `CC(=O)NS(=O)(=O)c1ccc(N)cc1` [Sulfacetamide sodic hydrate], 0.82. The compound `CC(=O)NS(=O)(=O)c1ccc(N)cc1` displayed a normalized bacterial growth of 0.991. In the case of `C=C1CC[C@@H]2[C@](C)(CO)[C@H](O)CC[C@@]2(C)[C@@H]1C/C=C1/C(=O)OC[C@H]1O` it was 0.9 and 0.924; in that of `CCN(CC)CC(=O)Nc1c(C)cccc1C` [Lidocaine hydrochloride], 0.877. The figure for `CC(=O)OCC(=O)[C@@]12OC(C)(C)O[C@@H]1C[C@H]1[C@@H]3C[C@H](F)C4=CC(=O)C=C[C@]4(C)[C@@]3(F)[C@@H](O)C[C@@]12C` [Fluocinonide] is 0.94. The figure for `CC(=O)OCC(=O)[C@@]12OC(C)(C)O[C@@H]1C[C@H]1[C@@H]3C[C@H](F)C4=CC(=O)C=C[C@]4(C)[C@@]3(F)[C@@H](O)C[C@@]12C` is 1.32.
